No constants are given. Whether binding was seen depends on the method and setting. Some binding calls cover weakened binding; strength is not graded here.

Amino acid sequences for entries named in this document (tags omitted). Residues count along the entry.
UniProt P05362, residues 28-480: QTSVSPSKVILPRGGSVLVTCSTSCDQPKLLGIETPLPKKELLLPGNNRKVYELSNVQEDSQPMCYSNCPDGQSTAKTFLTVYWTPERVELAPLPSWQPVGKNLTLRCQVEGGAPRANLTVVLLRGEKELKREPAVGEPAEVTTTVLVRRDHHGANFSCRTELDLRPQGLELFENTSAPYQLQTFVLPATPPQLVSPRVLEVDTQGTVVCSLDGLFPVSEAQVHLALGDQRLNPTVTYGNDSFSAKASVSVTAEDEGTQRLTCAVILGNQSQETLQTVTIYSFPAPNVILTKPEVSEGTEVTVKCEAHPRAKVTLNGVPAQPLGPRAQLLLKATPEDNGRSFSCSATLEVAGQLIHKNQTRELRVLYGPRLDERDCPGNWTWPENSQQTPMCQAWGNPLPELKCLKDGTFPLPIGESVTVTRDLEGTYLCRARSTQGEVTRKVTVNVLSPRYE
UniProt P13597, residues 28-485: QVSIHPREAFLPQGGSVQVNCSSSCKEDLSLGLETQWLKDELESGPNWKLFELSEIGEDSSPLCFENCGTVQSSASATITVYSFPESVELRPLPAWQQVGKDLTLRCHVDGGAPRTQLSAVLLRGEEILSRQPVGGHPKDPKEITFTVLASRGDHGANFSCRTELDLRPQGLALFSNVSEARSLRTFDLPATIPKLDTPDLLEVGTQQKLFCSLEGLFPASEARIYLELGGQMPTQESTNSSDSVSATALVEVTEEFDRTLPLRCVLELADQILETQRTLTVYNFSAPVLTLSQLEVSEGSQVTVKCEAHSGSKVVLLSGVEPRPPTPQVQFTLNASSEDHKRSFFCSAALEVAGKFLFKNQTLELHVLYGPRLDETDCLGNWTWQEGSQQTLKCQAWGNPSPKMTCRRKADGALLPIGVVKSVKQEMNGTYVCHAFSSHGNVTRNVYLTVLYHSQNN

For test [1], the target named is human ICAM-1 (immobilized, ELISA format) (human) (UniProt P05362). In words: FITC-labeled γ3 polystyrene carriers on immobilized ICAM-1 (ELISA format), beads bound per area by fluorescence microscopy. For orientation: In an ELISA, binding on a coated surface is turned into a signal by an enzyme label.
The target of test [2] is mouse ICAM-1 (immobilized, ELISA format) (mouse) (UniProt P13597). The description is as above.

In the case of NNQKIVNLKEKVAQLEA (also called γ3 peptide; γ3 carriers) [ICAM-1 affinity peptide γ3, a 17-mer polypeptide derived from fibrinogen], the binding result in test [1] and in test [2] was “binds” throughout.
